Results are given as percent effect. The controls that fix the scale are not given in the record; negative values are as filed. The compounds are a random part of those screened. Two or more numbers in one place are separate tests of the same structure; such repeats can differ widely.

Sequences of proteins named here, by UniProt entry; tags and fusion partners are left off. Residues count along the entry.
UniProt A4I591, 1-473: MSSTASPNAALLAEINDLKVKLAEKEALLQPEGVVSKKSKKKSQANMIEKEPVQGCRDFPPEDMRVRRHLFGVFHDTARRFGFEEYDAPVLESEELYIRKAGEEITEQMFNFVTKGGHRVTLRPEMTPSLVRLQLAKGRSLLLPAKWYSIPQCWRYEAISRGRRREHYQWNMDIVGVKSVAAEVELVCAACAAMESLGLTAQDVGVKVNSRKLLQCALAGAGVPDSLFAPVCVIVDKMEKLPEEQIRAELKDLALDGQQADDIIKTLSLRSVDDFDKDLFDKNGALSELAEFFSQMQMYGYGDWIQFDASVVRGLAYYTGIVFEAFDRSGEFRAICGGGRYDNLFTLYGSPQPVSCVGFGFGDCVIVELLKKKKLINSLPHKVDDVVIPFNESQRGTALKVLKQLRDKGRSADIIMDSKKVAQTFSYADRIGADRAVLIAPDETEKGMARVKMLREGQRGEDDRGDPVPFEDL
UniProt Q4DA54, 1-478: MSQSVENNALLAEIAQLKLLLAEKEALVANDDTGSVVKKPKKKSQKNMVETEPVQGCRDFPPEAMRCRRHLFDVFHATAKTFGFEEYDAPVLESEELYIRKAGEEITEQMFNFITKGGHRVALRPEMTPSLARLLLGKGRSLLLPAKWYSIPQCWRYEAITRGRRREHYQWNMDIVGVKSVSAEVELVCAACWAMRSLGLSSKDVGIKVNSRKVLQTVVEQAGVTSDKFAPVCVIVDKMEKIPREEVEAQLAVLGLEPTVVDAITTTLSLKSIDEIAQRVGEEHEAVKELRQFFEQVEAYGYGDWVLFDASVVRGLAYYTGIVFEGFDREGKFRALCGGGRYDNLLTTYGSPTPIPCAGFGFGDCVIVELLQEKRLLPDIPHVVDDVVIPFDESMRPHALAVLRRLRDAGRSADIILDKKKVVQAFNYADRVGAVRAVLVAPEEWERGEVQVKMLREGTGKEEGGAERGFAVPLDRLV
UniProt Q8IDJ8, 1-583: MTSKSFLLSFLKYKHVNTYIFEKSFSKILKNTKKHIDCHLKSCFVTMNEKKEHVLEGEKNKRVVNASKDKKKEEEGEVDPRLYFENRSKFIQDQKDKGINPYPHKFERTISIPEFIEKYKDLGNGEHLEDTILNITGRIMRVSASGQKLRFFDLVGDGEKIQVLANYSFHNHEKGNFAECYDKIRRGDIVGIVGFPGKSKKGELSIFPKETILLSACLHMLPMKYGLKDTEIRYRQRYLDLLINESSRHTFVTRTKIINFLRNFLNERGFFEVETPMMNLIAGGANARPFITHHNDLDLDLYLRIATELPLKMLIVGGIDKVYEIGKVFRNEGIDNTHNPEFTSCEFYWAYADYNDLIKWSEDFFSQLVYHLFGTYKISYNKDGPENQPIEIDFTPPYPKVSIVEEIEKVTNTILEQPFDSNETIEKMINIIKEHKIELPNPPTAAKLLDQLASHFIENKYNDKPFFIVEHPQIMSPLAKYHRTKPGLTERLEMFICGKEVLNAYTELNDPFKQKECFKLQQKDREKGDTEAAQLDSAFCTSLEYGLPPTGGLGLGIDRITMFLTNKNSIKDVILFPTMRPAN

LiHisRS: 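Histidine-tRNA ligase, Leishmania infantum (UniProt A4I591). Enzyme assay of histidyl-tRNA synthetase; the read-out is not stated. Compounds at 30 µM. Higher reads as stronger inhibition (inferred: compounds with an IC50 in retests scored well above the rest). The assay is labelled LdHisRS but filed under L. infantum. Size under these conditions: about 69,000 compounds, about 410 of them at 50% or above in at least one test.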
TcHisRS: 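Histidine-tRNA ligase, Trypanosoma cruzi CL Brener (UniProt Q4DA54). Enzyme assay of histidyl-tRNA synthetase; the read-out is not stated. Tested at 30 µM. Higher reads as stronger inhibition (inferred: compounds with an IC50 in retests scored well above the rest). About 69,000 compounds were tested under these conditions; 0.045% (about 31) showed 50% or more at least once.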
PfKRS1: 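Lysine-tRNA ligase, Plasmodium falciparum 3D7 (UniProt Q8IDJ8). Enzyme assay of the cytosolic lysyl-tRNA synthetase in 384-well plates, read by luminescence. Tested at 30 µM. Direction is inferred from only a few compounds that gave an IC50; most scored high, so higher reads as stronger inhibition. About 69,000 compounds were tested under these conditions; 0.071% (about 49) showed 50% or more at least once.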
Leishmania in macrophages: 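Cell assay of Leishmania donovani living inside macrophages; the read-out is not stated. Tested at 30 µM. Higher reads as stronger inhibition (inferred: compounds with an IC50 in retests scored well above the rest). Of about 69,000 compounds tested this way, about 1,000 (1.5%) reached 50% or more in at least one test.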

{"structure": "Cc1ccc(CCN[C@@H]2c3ccccc3C3(CCNCC3)[C@H]2O)s1", "LiHisRS": 15.56, "TcHisRS": 10.71, "PfKRS1": 6.782, "Leishmania in macrophages": 84.2}
{"structure": "Cc1nc(N2CCCC2)nc2c1CCN(Cc1nccn1C)CC2", "LiHisRS": 13.86, "TcHisRS": 10.55, "PfKRS1": 4.146}
{"structure": "Cc1cnn(C2CCCN(C(=O)CCc3cscn3)C2)c1", "stereo": "stereo not given", "LiHisRS": 8.929, "TcHisRS": 4.651, "PfKRS1": -0.9329, "Leishmania in macrophages": 13.91}
{"structure": "Cc1nc(CNC(=O)NCC(O)c2ccc(F)cc2)cs1", "stereo": "stereo not given", "LiHisRS": 16.36, "TcHisRS": 5.848, "PfKRS1": 0.9886, "Leishmania in macrophages": 14.52}
{"structure": "Cc1nc(CSCCC(=O)NCc2cccnc2N(C)C)cs1", "LiHisRS": 21.35, "TcHisRS": -2.256, "PfKRS1": 7.36, "Leishmania in macrophages": 29.16}
{"structure": "CCn1ccnc1SCCn1cnc2ccsc2c1=O", "LiHisRS": 13.16, "TcHisRS": 15.52, "PfKRS1": 5.699, "Leishmania in macrophages": -4.565}
{"structure": "CC(=O)N1CCCC1c1nnn2cc(NCc3cccnc3)ccc12.O=C(O)C(F)(F)F.O=C(O)C(F)(F)F", "stereo": "stereo not given", "Leishmania in macrophages": "-1.613 & 22.77"}
{"structure": "Cn1cc(I)c(C(=O)NCCCn2cc(Br)cn2)n1", "LiHisRS": 3.54, "TcHisRS": 3.509, "PfKRS1": 3.918, "Leishmania in macrophages": 28.44}
{"structure": "COc1cc(S(=O)(=O)N2CCCc3ccccc32)cc(C(=O)O)c1OC", "LiHisRS": 20.27, "TcHisRS": -1.132, "PfKRS1": 2.931, "Leishmania in macrophages": 1.897}
{"structure": "Cc1ccc(CN2Cc3nnn(C)c3C(COCCN(C)C)C2)s1.O=C(O)C(F)(F)F.O=C(O)C(F)(F)F", "stereo": "stereo not given", "Leishmania in macrophages": 25.22}
{"structure": "CC1c2ncc(COCC3CCOCC3)n2CCN1Cc1cccnc1.O=C(O)C(F)(F)F.O=C(O)C(F)(F)F", "stereo": "stereo not given", "Leishmania in macrophages": 9.792}
{"structure": "c1cnc(N2CCC(c3n[nH]c4ncccc34)C2)nc1", "stereo": "stereo not given", "LiHisRS": 24.64, "TcHisRS": 6.593, "PfKRS1": 3.953, "Leishmania in macrophages": "10.7 & 13.64"}
{"structure": "O=C(O)C(F)(F)F.O=C1COC2(CCN(C(=O)c3ccco3)CC2)CN1Cc1cccnc1", "Leishmania in macrophages": 27.86}
{"structure": "COc1cccc(CN2CCCC3(CCN(C(CO)CO)C3)C2)c1", "stereo": "stereo not given", "LiHisRS": 17.81, "TcHisRS": 2.97, "PfKRS1": 7.239, "Leishmania in macrophages": 14.6}
{"structure": "COc1ccc(C(C)NCc2cnnn2C)cc1F", "stereo": "stereo not given", "LiHisRS": -2.41, "TcHisRS": 6.077, "PfKRS1": -1.572, "Leishmania in macrophages": -8.914}
{"structure": "COC(=O)C(C)N(Cc1cc(=O)n(C)c(=O)n1C)C1CC1", "stereo": "stereo not given", "LiHisRS": 5.479, "TcHisRS": -1.053, "PfKRS1": -6.334, "Leishmania in macrophages": 10.45}
{"structure": "CC(C)Oc1ccccc1OCCN1C(=O)CCNC1=O", "LiHisRS": -7.143, "TcHisRS": 10.89, "PfKRS1": -3.07, "Leishmania in macrophages": 17.13}

The last 2 entries again:

COC(=O)C(C)N(Cc1cc(=O)n(C)c(=O)n1C)C1CC1 (stereo not given) read LiHisRS: 5.479%; TcHisRS: -1.053%; PfKRS1: -6.334%; Leishmania in macrophages: 10.45%.
CC(C)Oc1ccccc1OCCN1C(=O)CCNC1=O read LiHisRS: -7.143%; TcHisRS: 10.89%; PfKRS1: -3.07%; Leishmania in macrophages: 17.13%.

Source: ChEMBL document CHEMBL3988442, “University of Dundee, Small-Polar-MMV Screening Library” (2021).